± gives the standard deviation of the averaged measurements. Most values lie at the floor of the assay. Slopes are relative: functional sequences can read slightly below zero.
Tested on: Saccharomyces cerevisiae PS128 hsf1 delta, HSF1(1-493) fusion
Assay: growth estimate (transactivation domain function in HSF1 fusion, heat-shock survival) (a.u. (slope of normalised read count over time)); higher = stronger growth at 37°C, i.e. more transactivation activity
Details: library: random library
Procedure: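 Random 60-nt DNA library encoding peptides of up to 20 aa, fused to the C-terminus of yeast HSF1 residues 1-493 (C-terminal TAD deleted) and expressed from the native HSF1 promoter on a CEN plasmid in hsf1-deleted S. cerevisiae PS128. Cells were selected at 37°C on -trp 5-FOA plates for 0, 2, 4, 6 and 8 days and amplicons were sequenced. Growth estimate is the slope of a robust linear fit of total-sum-normalised read counts (normalised to the first time point) over time, using at least 2 replicates. Sequences are classed functional (TAD activity) above a threshold of -0.13, set from stop-codon control sequences.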

Row | Substance | growth estimate
1 | GLVCCEFKVSLRLAYQGNRA | < -0.25
2 | RMVS | < -0.25
3 | LVMSHIRCLVSVMWWRSANC | < -0.25
4 | SMGQRNF | < -0.25
5 | EGLNLPYLGQLD | < -0.25
6 | VLGFLS | < -0.25
7 | LPACTKSRMILSVFVNVH | < -0.25
8 | SSQVEPGI | < -0.25
9 | TERGISEP | < -0.25
10 | LLSLAS | < -0.25
11 | LAPAGETYWLGVARFYERTL | < -0.25
12 | SVTRSCLSSQFYES | < -0.25
13 | PHISPGSRT | < -0.25
14 | NTAADFSGL | < -0.25
15 | QTRVVGSDNWQR | < -0.25
16 | GIPWVIVKF | < -0.25
17 | EAIEWQPTDECSPKEVGGPD | < -0.25
18 | QSGQRFMR | < -0.25
19 | GARVP | < -0.25
20 | PSNP | < -0.25
21 | ISTDARK | < -0.25
22 | PRRSISIHSRIGHPERCRGL | < -0.25
23 | LGRLRSHFE | < -0.25
24 | PGSSRLVAVHGHRFERLVRA | < -0.25
25 | LPAR | < -0.25

Some values from the list.
growth estimate, LLSLAS is entered as < -0.25
growth estimate, QSGQRFMR is entered as < -0.25

Carrying on:

Row | Substance | growth estimate
26 | DQNQRE | < -0.25
27 | QRCSNKRRGASRGKWL | < -0.25
28 | YVLLRYK | < -0.25
29 | AAAGAQCLPQHSDVQRVERV | < -0.25
30 | RYCVITID | < -0.25
31 | LKPYTGSALI | < -0.25
32 | DGERI | < -0.25
33 | VGHPVWIRWRSPSPMFRHRV | 0.0038
34 | HTENKSTAVRPVVAGGQLHK | < -0.25
35 | SSI | -0.2486 ± 0.0024
36 | EGT | < -0.25
37 | PSPSNIDCRRGRPAL | < -0.25
38 | VLLHRQGMHRAATKRGFGVR | < -0.25
39 | RQTLGRTITNLRLRSIA | < -0.25
40 | DVR | < -0.25
41 | NARHKLVSPFGSNIV | < -0.25
42 | CFRDEVLCL | < -0.25
43 | TFLLSGQVRGGPGAVDRGLE | < -0.25
44 | VITRIFRWD | < -0.25
45 | RGMHYGRRICRSHSVGTHAA | < -0.25
46 | KVYILRLLIYDHAAEGGRST | < -0.25
47 | GHWAW | < -0.25
48 | RGSVWSIEWPGTGLATS | < -0.25
49 | FVSER | < -0.25
50 | CRG | < -0.25

Row | Substance | growth estimate
51 | PNCSVACRRKTSWLHGQSTA | -0.246
52 | ITPLRMG | < -0.25
53 | CTLRW | < -0.25
54 | SLGTGLALSGLVYRGPVIRL | < -0.25
55 | YMGEERLEGTFLAIYIQIKT | < -0.25
56 | WAPVMKSSSWLQRLPICAAL | < -0.25
57 | EATLADLSSTKVTR | < -0.25
58 | EGLAMGGLVTTQPVSPHILQ | < -0.25
59 | RDASSPILPQHVGGCLYYRH | < -0.25
60 | CRGCRDWVGSVFWVRLPRES | < -0.25
61 | VVLRERGASQGPV | < -0.25
62 | GSGKWSLNSWTGFTGLRFPT | < -0.25
63 | VGPENYRTVSIGKADLC | < -0.25
64 | RERNIRFI | < -0.25
65 | VRYADAQNTLGTRGVL | < -0.25
66 | RLKLMSQVL | < -0.25
67 | DCGCSYLTV | < -0.25
68 | GRVRTGAYSGILSDTQSRRG | < -0.25
69 | IGDGGTGEAPILRLSCLKGT | < -0.25
70 | LASLERAVFGVKSASAGLMR | < -0.25
71 | GGRRISAGEAAM | < -0.25
72 | FSFGPSGRQNRGARVGSTSA | < -0.25
73 | GTKRLEVFDLTYTLRVLLRP | < -0.25
74 | PVLQCHGIARMAGEVG | < -0.25
75 | RIYPLRQTSGSSPVGQEK | < -0.25

Row | Substance | growth estimate
76 | QPCVKTTDKKPKP | < -0.25
77 | SPCGVCSRDMTLRRLAR | < -0.25
78 | RSG | < -0.25
79 | LAR | -0.237 ± 0.018
80 | ETSGHEELGL | < -0.25
81 | ITSSLFRRRDT | < -0.25
82 | LDGELFFR | < -0.25
83 | TLSAERTRDTDCSLVDRYAA | < -0.25
84 | RSGYADGVLRSDSVQEGIYH | < -0.25
85 | LDRNGLAGNSVSNILNAYLG | < -0.25
86 | MPNRYFRHST | < -0.25
87 | ITSRTSGRHSNISST | < -0.25
88 | TVGVRVSVNSRRSCFGSADR | < -0.25
89 | IAIGKRRRGGYVDRICPRIP | < -0.25
90 | GDSGGHVHGKRAHWYLKQDL | < -0.25
91 | LRRS | < -0.25
92 | LGSIRPSRYLSVAGSALGHV | < -0.25
93 | GNAYGVYAHGWRREFSRVCQ | < -0.25
94 | MAKLSLRLTCPFRFVHGGLL | < -0.25
95 | QFLNAKSSDGINLVNPLVRV | < -0.25
96 | SYPLNLKDNRRL | < -0.25
97 | FMGIPNP | < -0.25
98 | TGPSNDKCACLPLSLQPFGL | < -0.25
99 | CNYAKYLGTNT | < -0.25
100 | VRCMVSPGYSQSERNGFSNT | < -0.25

Row | Substance | growth estimate
101 | TLELMHVNSRQNVWSLGQLT | < -0.25
102 | NMSLSQPRATTSPGERRGEI | < -0.25
103 | VCIVCPLLWTLLDTGPFHQS | < -0.25
104 | LMFDSRPTN | < -0.25
105 | IWLHRRRPVRVSCTHGTSKV | < -0.25
106 | DFTRALMMSRPRHRWAGVVT | < -0.25
107 | NGWAQLFKARLRKGQ | < -0.25
108 | LHT | < -0.25
109 | LFSQTFHGSLL | < -0.25
110 | SRPFFKIAMIIR | < -0.25
111 | GGDLQQLGRIPTKYFDNEDS | < -0.25
112 | ITDYASRHRRRFRVLKRPPY | < -0.25
113 | EELNGNRPQVSRTVSGLQRQ | < -0.25
114 | VETEHSR | < -0.25
115 | LECLLSAT | < -0.25
116 | PNSLGGGVLRPRGLLWRKVL | < -0.25
117 | DACVERLPRELRFRGVNCAW | < -0.25
118 | SLTERAPG | < -0.25
119 | RVWGVPWCGTEHCARRSSLT | < -0.25
120 | SGFVAVCDL | < -0.25
121 | VANVLERLAD | < -0.25
122 | SPPTLPKSRVPPD | < -0.25
123 | SRTSLQQWVVTSQRALTRSP | < -0.25
124 | MVWRIPSACRHYPWGPEVSQ | < -0.25
125 | RDP | < -0.25

Row | Substance | growth estimate
126 | AVIVVFIY | < -0.25
127 | CGKSGGYRIVTGNLVSSIDR | < -0.25
128 | GSEVAR | < -0.25
129 | VLIFRRRL | < -0.25
130 | FNLHRADVYWSHLDSGHW | < -0.25
131 | ICCIRKYRAFLVKSRNIRAP | < -0.25
132 | APPPS | < -0.25
133 | QYPFRVIHL | < -0.25
134 | WWDLVPGLSIVVVGIRKTHR | < -0.25
135 | LTTLRTGTKG | < -0.25
136 | RRISL | < -0.25
137 | GNPPTLFDERRQRRLRAIAR | < -0.25
138 | TIQGLGKVLFLPKVVSTQPL | -0.248
139 | ARYYAPLYSRMRGVSPPPER | < -0.25
140 | PPLCY | < -0.25
141 | RGIAWVALTFRDVQLGEGAH | < -0.25
142 | QPCEGGEHWSIRGA | < -0.25
143 | SPP | < -0.25
144 | FWHRGAESYLLVDVSSQLRS | < -0.25
145 | YKMGRCGMRIRFTFAWVLMV | < -0.25
146 | QYMMLSWFGPIRGRYGVTCI | < -0.25
147 | IFTGSPE | < -0.25
148 | STY | < -0.25
149 | LGVVKTWAGYLSGSRRFRSD | < -0.25
150 | TCGPEQKIESRAIGHRQPIL | < -0.25

Row | Substance | growth estimate
151 | TVRGTLLEATASLGPMHIKR | -0.231
152 | RGSFHTERGPPGIFRHSLGE | < -0.25
153 | TQVPRQGNCYNREAGYRNLR | < -0.25
154 | RQLIVVARSIQVEFLRLDSD | < -0.25
155 | CGIGIVPRLCLIKPASLIQL | < -0.25
156 | AYYRLFV | < -0.25
157 | PHFNRRDWMSGAPMVQGRDV | < -0.25
158 | TDECS | < -0.25
159 | RAQSGKNLRTIMGTVSVQVT | < -0.25
160 | TVCIEARDTASIPDAGPSVP | < -0.25
161 | HAISKHVISESSRPARFRAV | < -0.25
162 | RHKPRFHLKNVGIRDKRRGR | < -0.25
163 | CPVL | < -0.25
164 | PGTGGYTRDNFFGDPFLIAF | < -0.25
165 | LESRPSGSPSLVAVMPPLKV | < -0.25
166 | RIETAHPRLVAPVGVMICWI | < -0.25
167 | PQGSIQADTLEFP | < -0.25
168 | EGVRCDWGG | -0.245
169 | DPPF | < -0.25
170 | TLRQISDKLWQHNALEGPPS | < -0.25
171 | HICITTCWAQLRWHRTEQPG | < -0.25
172 | DLVVASPT | < -0.25
173 | WITWGPGEGCFTRSERLATR | < -0.25
174 | MHATGNAQK | < -0.25
175 | WKGGVTWGYAVDVLPPG | < -0.25

Pulled one by one from the entries so far, seven records:
Row | Substance | growth estimate
174 | MHATGNAQK | < -0.25
162 | RHKPRFHLKNVGIRDKRRGR | < -0.25
159 | RAQSGKNLRTIMGTVSVQVT | < -0.25
158 | TDECS | < -0.25
175 | WKGGVTWGYAVDVLPPG | < -0.25
165 | LESRPSGSPSLVAVMPPLKV | < -0.25
170 | TLRQISDKLWQHNALEGPPS | < -0.25

Continuation:

Row | Substance | growth estimate
176 | RGRVI | < -0.25
177 | GFERFSASLLRLCYGFDALQ | -0.246
178 | VPRIDSKPGQTFFSSVLLQW | < -0.25
179 | VVQ | < -0.25
180 | RWCLTAIDGSFALTHPYFPA | < -0.25
181 | LERVS | < -0.25
182 | QVSASVDL | < -0.25
183 | LGRCGFRVRDEPLVRLDLKD | < -0.25
184 | LGGTVLYGSVRRMVIPARRI | < -0.25
185 | LLVSYV | < -0.25
186 | VDLFNMRLRFFIGSFFQYRA | < -0.25
187 | YATGGLGADNTLLSCQELDP | < -0.25
188 | VFDVLGDV | < -0.25
189 | TKNRPSA | < -0.25
190 | RYRSSHRK | < -0.25
191 | YVRQKLSIAGKSPG | < -0.25
192 | YALA | < -0.25
193 | ALYWVPLAKVERSFVECLGL | < -0.25
194 | VPSSGAFRSCGNIETTIHKV | < -0.25
195 | VRTGGLEKAPRS | < -0.25
